The target of assay [1] is HTRA1 (secreted serine protease) (human) (UniProt Q92743). The experiment in a line: pull-down of extracellular proteins from MDA-MB-231 culture medium with LOX-GFP, western blot (FIGS. 16 and 17).
The target is the same in assay [2]. The experiment in a line: western blot; the HTRA1/GFP ratio indicates binding strength.

Chains of the proteins cited; added tags and fusions are not shown. Residues count along the entry.
UniProt Q92743, residues 23-480: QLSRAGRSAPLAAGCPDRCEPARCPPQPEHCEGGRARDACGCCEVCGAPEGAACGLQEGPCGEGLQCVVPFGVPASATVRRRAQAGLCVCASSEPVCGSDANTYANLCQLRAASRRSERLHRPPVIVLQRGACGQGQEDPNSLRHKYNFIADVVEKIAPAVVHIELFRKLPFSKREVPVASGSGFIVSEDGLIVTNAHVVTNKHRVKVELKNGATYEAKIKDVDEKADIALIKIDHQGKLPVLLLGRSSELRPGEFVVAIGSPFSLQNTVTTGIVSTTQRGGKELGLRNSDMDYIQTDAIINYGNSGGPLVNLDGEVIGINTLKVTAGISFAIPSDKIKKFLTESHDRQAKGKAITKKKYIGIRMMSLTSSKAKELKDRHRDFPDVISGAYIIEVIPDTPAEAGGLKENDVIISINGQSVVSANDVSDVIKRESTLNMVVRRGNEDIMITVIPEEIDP

No constants are given. Whether binding was seen depends on the method and setting. Some entries that bind do so weakly or less than the wild type. Sequences can lack the tags named with a protein.

B1: LOX-GFP (WT) (protein, mouse, UniProt P28301 22-411, looked up, not shown: large carriers)
chain: APQTPREPPAAPGAWRQTIQWENNGQVFSLLSLGAQYQPQRRRDPSATARRPDGDAASQPRTPILLLRDNRTASTRARTPSPSGVAAGRPRPAARHWFQAGFSPSGARDGASRRAANRTASPQPPQLSNLRPPSHIDRMVGDDPYNPYKYSDDNPYYNYYDTYERPRPGSRNRPGYGTGYFQYGLPDLVPDPYYIQASTYVQKMSMYNLRCAAEENCLASSAYRADVRDYDHRVLLRFPQRVKNQGTSDFLPSRPRYSWEWHSCHQHYHSMDEFSHYDLLDANTQRRVAEGHKASFCLEDTSCDYGYHRRFACTAHTQGLSPGCYDTYAADIDCQWIDITDVQPGNYILKVSVNPSYLVPESDYTNNVVRCDIRYTGHHAYASGCTISPY
For the molecule B1, the binding result in assay [1] and in assay [2] was “binds” each time.

Source of the values: patent US20190152966A1 (INSTITUTE OF CANCER RESEARCH ROYAL CANCER HOSPITAL, published 2019).
